The assay has as its system P388 leukemia ip, CD2F1 mice, survival T/C. In words: NCI In Vivo Anticancer Drug Screen. Data for tumor model P388 Leukemia (intraperitoneal) in CD2F1 (CDF1) mice. The note with it: T/C endpoint: median survival time, higher T/C = longer survival.
Setting [1] is: dose: 200.0 mg/kg/injection, schedule: Q01DX005 (ip), vehicle: Klucel (hydroxypropylcellulose) (HPC).
[2] abbreviates: dose: 200.0 mg/kg/injection, schedule: Q01DX005 (ip), vehicle: saline with Tween-80.
Setting [3] is: dose: 200.0 mg/kg/injection, schedule: Q01DX009 (ip), vehicle: saline.
[4] abbreviates: dose: 100.0 mg/kg/injection, schedule: Q01DX009 (ip), vehicle: saline with Tween-80.
[5] abbreviates: dose: 50.0 mg/kg/injection, schedule: Q01DX009 (ip), vehicle: saline.
The mark [6] stands for this setting: dose: 100.0 mg/kg/injection, schedule: Q01DX009 (ip), vehicle: saline.
The mark [7] stands for this setting: dose: 50.0 mg/kg/injection, schedule: Q01DX009 (ip), vehicle: water.
[8] abbreviates: dose: 100.0 mg/kg/injection, schedule: Q01DX009 (ip), vehicle: water.
Where [9] appears, read: dose: 200.0 mg/kg/injection, schedule: Q01DX009 (ip), vehicle: water.
[10] abbreviates: dose: 12.5 mg/kg/injection, schedule: Q01DX009 (ip), vehicle: saline with Tween-80.
The mark [11] stands for this setting: dose: 200.0 mg/kg/injection, schedule: Q01DX009 (ip), vehicle: Klucel (hydroxypropylcellulose) (HPC).

The list does not hold the whole screen: it is rich in T/C values a quarter to a half above the control, in often repeated tests (any T/C) and in doses without a T/C. Further doses and runs are listed elsewhere. T/C gives the treated animals as a percentage of the vehicle group. Some entries give survivors of the animals treated and no T/C: the source holds a T/C of zero for them, seemingly a mark for toxic or unscored doses. Some survivor counts are full or nearly so, which does not show that the dose was tolerated: the source hardly ever lists a survival T/C far under the control, and the zero likely stands for such cases as well. Counts of survivors are from the toxicity check (mostly the fifth day) where no day follows; animals may have died later. Schedules are NCI's codes, taken here to give the interval after Q, in days (D) or hours (H), and the number of doses after X. Where survival is the endpoint, the PubChem record calls one and a half times the control and up active, and a quarter to a half above the control has no call in these data; cut-offs in other NCI protocols can differ. Some entries were tested several times; their values stand side by side, smallest first. Some T/C values are followed by the survivors on the day toxicity was checked, most often the fifth; without a count, all were alive then.

29 compounds from PubChem BioAssay AID330 (DTP/NCI, 2004) can be followed below.

On to `O=C1OC(c2ccccc2)CC1N1CCOCC1` (centres undefined), for which, where the note is “dose: 200.0 mg/kg/injection, schedule: Q04DX003 (ip), vehicle: saline sonified”, the survivor count is given as 6 of 6.

`N#CC(c1ccccc1)(N1CCOCC1)N1CCOCC1`: the survivor count was 0 of 6 (dose: 50.0 mg/kg/injection, schedule: Q04DX003 (ip), vehicle: saline); 0 of 6 (dose: 100.0 mg/kg/injection, schedule: Q04DX003 (ip), vehicle: saline); 0 of 6 (dose: 200.0 mg/kg/injection, schedule: Q04DX003 (ip), vehicle: saline with Tween-80); 0 of 6 (dose: 400.0 mg/kg/injection, schedule: Q04DX003 (ip), vehicle: saline with Tween-80).

With `CCCCCN(CCC)CCCCCCCCCN1CCCc2cc(OC)ccc21`, for the setting “dose: 200.0 mg/kg/injection, schedule: Q01DX005 (ip), vehicle: saline + Tween-80 + alcohol”, the survivor count is on record as 3 of 5.

As to `CC1=NN(C(C)(C)C)[Si](C)(C)C1`, under setting [1], the survivor count is on record as 1 of 6.

For the compound `CC(=O)c1ccc(C)cc1C`, the survivor count (dose: 400.0 mg/kg/injection, schedule: Q01DX009 (ip), vehicle: saline with Tween-80) is reported as 1 of 6.

In the case of `CCOc1c(N=Nc2ccc(Cl)cc2Cl)c(C)nn1C(=S)SC`, where the note is “dose: 240.0 mg/kg/injection, schedule: Q01DX005 (ip), vehicle: Klucel + Tween-80”, the survivor count is given as 0 of 6.

As to `CCCc1cc(=O)[nH]c(Sc2ccc([N+](=O)[O-])cn2)n1`, the survivor count (dose: 50.0 mg/kg/injection, schedule: Q01DX005 (ip), vehicle: Klucel (hydroxypropylcellulose) (HPC)) is given as 1 of 5; the survivor count (dose: 100.0 mg/kg/injection, schedule: Q01DX005 (ip), vehicle: Klucel (hydroxypropylcellulose) (HPC)) was 3 of 5; the survivor count under setting [1] is recorded as 0 of 5.

With `O=C(O)c1c(CS(F)(F)(F)(F)F)cc(=O)oc1CS(F)(F)(F)(F)F`, the survivor count under setting [2] was 3 of 5.

As for `COc1ccc2[nH]c3c(C)c4ccn5c(=O)c6ccccc6cc5c4c(C)c3c2c1`, the survivor count was 6 of 6 (dose: 1.56 mg/kg/injection, schedule: Q04DX003 (ip), vehicle: distilled water + Tween-80); 6 of 6 (dose: 3.13 mg/kg/injection, schedule: Q04DX003 (ip), vehicle: distilled water + Tween-80); 6 of 6 (dose: 6.25 mg/kg/injection, schedule: Q04DX003 (ip), vehicle: distilled water + Tween-80); 6 of 6 (dose: 12.5 mg/kg/injection, schedule: Q04DX003 (ip), vehicle: distilled water + Tween-80); 6 of 6 (dose: 25.0 mg/kg/injection, schedule: Q04DX003 (ip), vehicle: distilled water + Tween-80); 6 of 6 (dose: 50.0 mg/kg/injection, schedule: Q04DX003 (ip), vehicle: distilled water + Tween-80). In addition, the survivor count (dose: 100.0 mg/kg/injection, schedule: Q04DX003 (ip), vehicle: distilled water + Tween-80) is recorded as 6 of 6.

For `O=C1CCC2(CC(Br)C(=O)c3ccccc32)C(=O)N1` (centres undefined), the survivor count (dose: 240.0 mg/kg/injection, schedule: Q01DX005 (ip), vehicle: Klucel (hydroxypropylcellulose) (HPC)) is given as 2 of 6.

In the case of `CC1CCN(CC(O)C(C)(C)Oc2ccc(-c3ccccc3)cc2)CC1` (centres undefined), the survivor count under setting [1] is given as 0 of 6.

Regarding `COC(=O)C1=C(N)N2C/C(=C/c3cccs3)SC2=C(C(=O)OC)C1c1cccs1` (centres undefined), the survivor count is 5 of 5 (dose: 100.0 mg/kg/injection, schedule: Q01DX005 (ip), vehicle: saline with Tween-80) and 5 of 5 under setting [2].

`C(CCCSC1=NCCN1)CCSC1=NCCN1`: the survivor count is given as 0 of 6 under setting [3] and 0 of 6 (dose: 400.0 mg/kg/injection, schedule: Q01DX009 (ip), vehicle: saline).

With `C1=C[N]2c3c4c(ccc3=C1)=CC=C[N]4[Ga]2[c]1ccccc1`, the T/C (dose: 50.0 mg/kg/injection, schedule: Q01DX009 (ip), vehicle: Klucel (hydroxypropylcellulose) (HPC)) is 126 % of control [5 of 6 alive].

In the case of `O=C(NCc1ccccc1)N1CCN(c2ccccc2)C1=O`, under setting [4], the T/C was 125 % of control and the survivor count is on record as 6 of 6.

Regarding `CC(O)CN(CCN(CC(C)O)CC(C)O)CC(C)O.[Cl-].[Zn+2]` (centres undefined), the T/C under setting [5] is 128 [4 of 6 alive] and 134 % of control. Further, the survivor count is, setting by setting: under setting [6], 0 of 6; under setting [3], 0 of 6.

Turning to `Nc1nc(N)c2cc(C=O)ccc2n1`, the survivor count reads like this: (dose: 12.5 mg/kg/injection, schedule: Q01DX009 (ip), vehicle: water) 3 of 6; (dose: 25.0 mg/kg/injection, schedule: Q01DX009 (ip), vehicle: water) 2 of 6; under setting [7], 1 of 6; under setting [8], 0 of 6; under setting [9], 0 of 6.

In the case of `Clc1cc(CBr)c(CBr)cc1Cl`, the survivor count is, setting by setting: under setting [10], 4 of 6; (dose: 50.0 mg/kg/injection, schedule: Q04DX003 (ip), vehicle: saline with Tween-80) 5 of 6.

For `CCOn1nnc2c([N+](=O)[O-])cccc21`, under setting [2], the survivor count is 1 of 6.

Regarding `CCOC(=O)NSCC`, the survivor count reads like this: under setting [5], 4 of 6; under setting [6], 2 of 6; under setting [3], 0 of 6.

Consider `COc1cccc(CC#N)c1O`, for which the survivor count under setting [11] is given as 2 of 6.

`Cn1c(=O)[nH]c2nnc(-c3ccccc3)nc2c1=O`: the survivor count under setting [11] was 0 of 6.

For `CC(C)C/C=C/CCCCCCCCCC(=O)NCC(=O)NC1C(C)OC(Nc2ncnc3nc[nH]c23)C(O)C1O` (centres undefined), the T/C runs as follows: (dose: 0.25 mg/kg/injection, schedule: Q01DX009 (ip), vehicle: water) 137 % of control; (dose: 2.0 mg/kg/injection, schedule: Q01DX009 (ip), vehicle: water) 128 and 133 % of control; (dose: 4.0 mg/kg/injection, schedule: Q01DX009 (ip), vehicle: water) 148 % of control; (dose: 16.0 mg/kg/injection, schedule: Q01DX009 (ip), vehicle: water) 143 % of control.

For `CN=C(N)NN=C(c1ccc(F)cc1)c1ccc(F)cc1`, the T/C (dose: 25.0 mg/kg/injection, schedule: Q04DX002 (ip), vehicle: saline with Tween-80) is 146 and 147 % of control. Besides, the survivor count (dose: 50.0 mg/kg/injection, schedule: Q04DX002 (ip), vehicle: saline with Tween-80) is 6 of 6.

Take `CC(C)(C)NC1/C(=C\c2ccccc2)C(=O)c2ccccc2C1(C)C` (centres undefined): under “dose: 400.0 mg/kg/injection, schedule: Q01DX009 (ip), vehicle: other”, the survivor count is listed as 2 of 6.

For the compound `COCCOC1=C(N2CC2)C(=O)C(OCCOC)=C(N2CC2)C1=O`, the T/C by setting is: (dose: 5.0 mg/kg/injection, schedule: Q04DX003 (ip), vehicle: saline) 131 % of control; (dose: 7.5 mg/kg/injection, schedule: Q04DX003 (ip), vehicle: saline) 127 % of control. Moreover, where the note is “dose: 7.5 mg/kg/injection, schedule: Q01DX009 (ip), vehicle: saline”, the survivor count is given as 5 of 6.

For the compound `N=C(N)c1ccc(/C=C/c2ccc(C(=N)N)cc2O)cc1`, the T/C runs as follows: (dose: 33.0 mg/kg/injection, schedule: Q01DX009 (ip), vehicle: water) 129 % of control; under setting [7], 130 [4 of 6 alive] and 137 % of control; (dose: 75.0 mg/kg/injection, schedule: Q01DX009 (ip), vehicle: water) 132 % of control. Besides, the survivor count is recorded as 3 of 6 under setting [8] and 0 of 6 under setting [9].

Turning to `N#CCc1nc2ccccc2nc1Cl`, the survivor count (dose: 200.0 mg/kg/injection, schedule: Q01DX009 (ip), vehicle: distilled water + Tween-80 + alcohol) was 4 of 6.

Turning to `CC1CN1c1nc(N2CC2C)nc(N2CC2C)n1` (centres undefined), the survivor count (dose: 6.25 mg/kg/injection, schedule: Q01DX009 (ip), vehicle: saline with Tween-80) is 3 of 6; the survivor count under setting [10] is listed as 0 of 6; the survivor count (dose: 25.0 mg/kg/injection, schedule: Q01DX009 (ip), vehicle: saline with Tween-80) is 0 of 6.
